Source: the supplement of paper PMC5949888
Most values lie at the floor of the assay. Slopes are relative: functional sequences can read slightly below zero.

The substances below were run on Saccharomyces cerevisiae PS128 hsf1 delta, HSF1(1-493) fusion (assay: growth estimate (transactivation domain function in HSF1 fusion, heat-shock survival) (a.u. (slope of normalised read count over time)); higher = stronger growth at 37°C, i.e. more transactivation activity). Conditions: library: random library.

Row | Substance | growth estimate
1 | CMTSVKFPPSFECAVEVDRL | < -0.25
2 | IPTTSAAAEKGFF | < -0.25
3 | GNERDPFSLTIYT | < -0.25
4 | GVTGRCQVMSVLGHNGYDRR | < -0.25
5 | TKAGAPGRPQSGGFPSRSWL | < -0.25
6 | LRRRMTV | < -0.25
7 | ASISQCISAVNSWPFSRRCR | < -0.25
8 | NPLKFGELVNLSHRCVTLIH | < -0.25
9 | PGAWLRHGLPTPDDFEVPIV | < -0.25
10 | RNRSERANTRAYGRGSREGA | < -0.25
11 | RVSGLGCLGRDKATRRGLRS | < -0.25
12 | SAHV | < -0.25
13 | VGVRLGGSHNYSKDNVFLIP | < -0.25
14 | PTNYRTRPCLLVKKRKKKGI | < -0.25
15 | FLG | < -0.25
16 | LEPPRG | < -0.25
17 | GRCSVD | < -0.25
18 | GMTVYGSCHNEFQDSPE | < -0.25
19 | DNGNKSVMLVS | < -0.25
20 | DGGSSFLESRYENWCGNRWS | 76.5
21 | SLRPQVLQGTVCRVGV | < -0.25
22 | RVYHRLEIGYDAPQNIHPWS | < -0.25
23 | RAGGKMGGTVARRLSVY | < -0.25
24 | RLPWHWALFRATAGRISK | < -0.25

Quoted at random: four entries already listed.
Row | Substance | growth estimate
10 | RNRSERANTRAYGRGSREGA | < -0.25
5 | TKAGAPGRPQSGGFPSRSWL | < -0.25
7 | ASISQCISAVNSWPFSRRCR | < -0.25
3 | GNERDPFSLTIYT | < -0.25

(next part)

Row | Substance | growth estimate
25 | LCNHICPDVGDGSTTLILRR | < -0.25
26 | VPDRCESGSGG | < -0.25
27 | RLSTNDVRSQSKRRVKVKIG | -0.245
28 | LARLS | < -0.25
29 | RFTDEVPCYGHCG | < -0.25
30 | RVRGSNPSWGTLG | < -0.25
31 | NNKR | -0.189
32 | CVFWELGVRLASSQTYAMDP | < -0.25
33 | LGTGCLTGKEASKGYASRLA | -0.246
34 | KARRDQGVESLTT | < -0.25
35 | FVKSPCSSRFRFTAGPNPRI | < -0.25
36 | LQRAGRLPSPRYPEMRILEA | < -0.25
37 | QHHGSLTTPP | < -0.25
38 | WCDLVVAVYRKFELSLDFLK | < -0.25
39 | HTCRRLGGGRASKPAIL | < -0.25
40 | PPRLSHWRVNLLDLSAD | < -0.25
41 | PPTGEAAQC | < -0.25
42 | VDTIPEPQTRRAIRRTSQSV | < -0.25
43 | LKRGLQLPGQLSWNDKQRWP | < -0.25
44 | GFEAGINCD | < -0.25
45 | QDHYMHGLVPFSLRSKA | < -0.25
46 | RIPRPLGKLMDDRKR | < -0.25
47 | HALSGEVSMLGSGELESLIP | < -0.25
48 | PIKFDEVDKFLIYRSQGSRL | < -0.25

Row | Substance | growth estimate
49 | HNFDWAVERPHRPLKLEDAL | < -0.25
50 | AGYFHVPAQRRSVVSPRRPR | < -0.25
51 | HGCLGGLLLWEDSPSRRSIY | < -0.25
52 | DIRGKQPRPCNSSKTTVEAS | < -0.25
53 | GVQPRGALTDSLSELFGVGP | < -0.25
54 | RSNGGI | < -0.25
55 | RMVDRCDPVALAVSLRMSLT | < -0.25
56 | LLGEPVETPRWWRSS | < -0.25
57 | PTNPMTRCPICSGGSSVLPR | < -0.25
58 | FTPFLFRCYSGRFNDCPRRR | < -0.25
59 | CVLRHFAPLCVRSQEGPTLV | < -0.25
60 | RMNWFKGGVSEVEELFLET | 0.0385
61 | IEF | < -0.25
62 | WTHGQRRPALDGLYLWAPLR | < -0.25
63 | VRYWSTNWFVKTLLPTCF | < -0.25
64 | RGSVRKLT | < -0.25
65 | SVSFGGLDDVSVYH | -0.0468
66 | STARLADRVGLSERRALCIM | < -0.25
67 | RRSLQPAARDAHCSYSQVFA | < -0.25
68 | IWNAVVSLFCSSRPGT | < -0.25
69 | PRYLPDHIKEVNPVRGWFHR | < -0.25
70 | GSGKVLWPSLVSPMV | < -0.25
